Results published in US6087493A, “Porphyrin compounds as telomerase inhibitors” (Regents of the University of Texas System, priority 1998, dated 2000).

What was measured:
[1] = system: intramolecular quadruplex d(AG3 [T2 AG3 ]3); assay: UV titration with intramolecular quadruplex; format: binding, human
[2] = system: quadruplex formed by d(TTAGGG); assay: NMR titration of parallel-stranded quadruplex; format: binding, human; settings: one equivalent TMPyP4

## C[n+]1ccc(-c2c3nc(c(-c4cc[n+](C)cc4)c4ccc([nH]4)c(-c4cc[n+](C)cc4)c4nc(c(-c5cc[n+](C)cc5)c5ccc2[nH]5)C=C4)C=C3)cc1 [TMPyP4, 5,10,15,20-tetra-(N-methyl-4-pyridyl)porphine]
[1]
  UV spectral change: sharp isosbestic points, hypochromicity, and a marked red-shift
  stoichiometry of porphyrins per quadruplex: two porphyrins per quadruplex
[2]
  G4(NH1) upfield shift: 0.7 ppm
  G5(NH1) upfield shift: 0.2 ppm
  G6(NH1) shift: unchanged
